Values are relative to the signal before dosing, not to a vehicle control; the signal also falls without drug.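 Fibroblast labels name human fibroblasts: mostly primary ones from tissues such as uterus (C12385, HUF), lung (H6013), bone (Hs27A), adrenal (HADF) and skin (WS1), plus mammary HMF and breast cancer-associated Hs343T. The cancer cells are basal-like or mesenchymal-like triple-negative breast cancer lines. The paper calls a changed response a hit when it shifts by more than 3x the replicate standard deviation. The tissue of the other fibroblasts is not given here.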
Tested on: Hs578T
Test: relative JC-1 red fluorescence (viability) vs pre-drug, coculture with fibroblast (fraction); higher = more viable cancer cells
Experimental: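 JC-1 labelled TNBC cells cocultured 1:1 (1,500 cells each) with CellTrace Violet stained primary or stromal fibroblasts in 384-well plates in FluoroBrite medium, treated with one of 42 anticancer drugs at 0.1, 1, 10 or 100 uM. JC-1 red fluorescence (mitochondrial integrity in cancer cells only) was read by plate reader every 8 h for 72 h. Values are normalised to each well's pre-drug value. The stock of one drug was tenfold lower, so its dose labels may be too high.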

CC(C)(C#N)c1cc(Cn2cncn2)cc(C(C)(C)C#N)c1 [Anastrozole]
relative JC-1 red fluorescence
Conditions | 8 h | 16 h | 24 h | 32 h | 40 h | 48 h | 56 h | 64 h | 72 h
0.1 µM | 0.949 | 0.821 | 0.721 | 0.662 | 0.58 | 0.531 | 0.483 | 0.435 | 0.415
1 µM | 0.8974 | 0.781 | 0.707 | 0.668 | 0.617 | 0.576 | 0.559 | 0.523 | 0.51
10 µM | 0.9043 | 0.802 | 0.75 | 0.718 | 0.657 | 0.615 | 0.592 | 0.551 | 0.535
100 µM | 0.905 | 0.8117 | 0.777 | 0.745 | 0.695 | 0.656 | 0.643 | 0.612 | 0.6

relative JC-1 red fluorescence
Conditions | 8 h | 16 h | 24 h | 32 h | 40 h | 48 h | 56 h | 64 h | 72 h
0.1 µM, coculture fibroblast: C12385 | 0.839 | 0.715 | 0.692 | 0.597 | 0.524 | 0.488 | 0.46 | 0.454 | 0.451
0.1 µM, coculture fibroblast: H6013 | 0.802 | 0.778 | 0.744 | 0.71 | 0.675 | 0.664 | 0.648 | 0.634 | 0.61
0.1 µM, coculture fibroblast: H6019 | 0.779 | 0.698 | 0.671 | 0.583 | 0.544 | 0.522 | 0.494 | 0.48 | 0.458
0.1 µM, coculture fibroblast: H6076 | 0.9172 | 0.831 | 0.76 | 0.722 | 0.676 | 0.654 | 0.626 | 0.615 | 0.611
0.1 µM, coculture fibroblast: H6231 | 0.881 | 0.758 | 0.703 | 0.661 | 0.6 | 0.57 | 0.537 | 0.527 | 0.521
0.1 µM, coculture fibroblast: HADF | 0.8932 | 0.7658 | 0.682 | 0.623 | 0.57 | 0.5342 | 0.506 | 0.491 | 0.463
0.1 µM, coculture fibroblast: HCFa | 0.82825 | 0.7307 | 0.667 | 0.597 | 0.53 | 0.5 | 0.467 | 0.443 | 0.407
0.1 µM, coculture fibroblast: HCPF | 0.896 | 0.793 | 0.755 | 0.734 | 0.674 | 0.651 | 0.6377 | 0.612 | 0.598
0.1 µM, coculture fibroblast: HHSteC | 0.878 | 0.799 | 0.751 | 0.716 | 0.66 | 0.627 | 0.604 | 0.587 | 0.554
0.1 µM, coculture fibroblast: HMF | 0.925 | 0.841 | 0.748 | 0.705 | 0.643 | 0.607 | 0.557 | 0.527 | 0.512
0.1 µM, coculture fibroblast: HPFa | 0.9476 | 0.8618 | 0.809 | 0.752 | 0.712 | 0.676 | 0.635 | 0.614 | 0.568
0.1 µM, coculture fibroblast: HUF | 0.8761 | 0.7211 | 0.71 | 0.601 | 0.551 | 0.515 | 0.488 | 0.482 | 0.481
0.1 µM, coculture fibroblast: Hs27A | 0.9033 | 0.814 | 0.756 | 0.706 | 0.64 | 0.619 | 0.574 | 0.556 | 0.508
0.1 µM, coculture fibroblast: Hs343T | 0.919 | 0.8 | 0.724 | 0.7 | 0.615 | 0.5836 | 0.537 | 0.511 | 0.51
0.1 µM, coculture fibroblast: WS1 | 0.801 | 0.7072 | 0.677 | 0.591 | 0.54 | 0.523 | 0.504 | 0.507 | 0.506
1 µM, coculture fibroblast: C12385 | 0.82 | 0.717 | 0.647 | 0.561 | 0.501 | 0.464 | 0.431 | 0.417 | 0.412
1 µM, coculture fibroblast: H6013 | 0.901 | 0.804 | 0.755 | 0.7 | 0.638 | 0.616 | 0.594 | 0.583 | 0.549
1 µM, coculture fibroblast: H6019 | 0.787 | 0.668 | 0.648 | 0.547 | 0.519 | 0.499 | 0.464 | 0.449 | 0.427
1 µM, coculture fibroblast: H6076 | 0.92 | 0.8254 | 0.7489 | 0.723 | 0.682 | 0.676 | 0.654 | 0.648 | 0.645
1 µM, coculture fibroblast: H6231 | 0.891 | 0.792 | 0.675 | 0.6345 | 0.5607 | 0.5292 | 0.479 | 0.452 | 0.435
1 µM, coculture fibroblast: HADF | 0.914 | 0.856 | 0.785 | 0.733 | 0.69 | 0.662 | 0.632 | 0.623 | 0.594
1 µM, coculture fibroblast: HCFa | 0.885 | 0.797 | 0.722 | 0.654 | 0.57 | 0.538 | 0.495 | 0.47 | 0.425
1 µM, coculture fibroblast: HCPF | 0.8724 | 0.784 | 0.724 | 0.691 | 0.637 | 0.61 | 0.5894 | 0.556 | 0.5413
1 µM, coculture fibroblast: HHSteC | 0.914 | 0.78 | 0.725 | 0.661 | 0.581 | 0.54 | 0.503 | 0.468 | 0.427
1 µM, coculture fibroblast: HMF | 0.871 | 0.775 | 0.7 | 0.673 | 0.615 | 0.5822 | 0.5424 | 0.514 | 0.498
1 µM, coculture fibroblast: HPFa | 0.9369 | 0.894 | 0.752 | 0.682 | 0.626 | 0.583 | 0.546 | 0.519 | 0.471
1 µM, coculture fibroblast: HUF | 0.806 | 0.684 | 0.63 | 0.525 | 0.46 | 0.425 | 0.395 | 0.384 | 0.379
1 µM, coculture fibroblast: Hs27A | 0.8749 | 0.817 | 0.747 | 0.704 | 0.645 | 0.624 | 0.585 | 0.575 | 0.533
1 µM, coculture fibroblast: Hs343T | 0.9 | 0.779 | 0.711 | 0.694 | 0.63276 | 0.6029 | 0.56 | 0.536 | 0.539
1 µM, coculture fibroblast: WS1 | 0.796 | 0.683 | 0.58 | 0.485 | 0.419 | 0.392 | 0.362 | 0.35 | 0.342
10 µM, coculture fibroblast: C12385 | 0.8562 | 0.727 | 0.6802 | 0.5966 | 0.5258 | 0.4843 | 0.4556 | 0.434 | 0.415
10 µM, coculture fibroblast: H6013 | 0.867 | 0.768 | 0.727 | 0.706 | 0.679 | 0.678 | 0.66 | 0.659 | 0.633
10 µM, coculture fibroblast: H6019 | 0.7821 | 0.691 | 0.64 | 0.552 | 0.506 | 0.472 | 0.437 | 0.41 | 0.384
10 µM, coculture fibroblast: H6076 | 0.928 | 0.861 | 0.787 | 0.756 | 0.694 | 0.679 | 0.634 | 0.625 | 0.617
10 µM, coculture fibroblast: H6231 | 0.9457 | 0.858 | 0.787 | 0.725 | 0.664 | 0.621 | 0.569 | 0.542 | 0.517
10 µM, coculture fibroblast: HADF | 0.916 | 0.796 | 0.729 | 0.675 | 0.625 | 0.597 | 0.558 | 0.539 | 0.502
10 µM, coculture fibroblast: HCFa | 0.8431 | 0.732 | 0.661 | 0.605 | 0.532 | 0.506 | 0.467 | 0.456 | 0.428
10 µM, coculture fibroblast: HCPF | 0.909 | 0.829 | 0.791 | 0.764 | 0.705 | 0.687 | 0.652 | 0.612 | 0.586
10 µM, coculture fibroblast: HHSteC | 0.888 | 0.769 | 0.729 | 0.684 | 0.637 | 0.606 | 0.576 | 0.5557 | 0.5257
10 µM, coculture fibroblast: HMF | 0.8994 | 0.841 | 0.7981 | 0.772 | 0.719 | 0.687 | 0.655 | 0.633 | 0.607
10 µM, coculture fibroblast: HPFa | 0.932 | 0.842 | 0.768 | 0.699 | 0.641 | 0.601 | 0.558 | 0.529 | 0.491
10 µM, coculture fibroblast: HUF | 0.8899 | 0.748 | 0.725 | 0.628 | 0.562 | 0.526 | 0.484 | 0.468 | 0.454
10 µM, coculture fibroblast: Hs27A | 0.907 | 0.85 | 0.771 | 0.714 | 0.651 | 0.63 | 0.592 | 0.568 | 0.522
10 µM, coculture fibroblast: Hs343T | 0.932 | 0.832 | 0.758 | 0.73 | 0.656 | 0.624 | 0.567 | 0.534 | 0.504
10 µM, coculture fibroblast: WS1 | 0.812 | 0.704 | 0.628 | 0.539 | 0.47 | 0.436 | 0.397 | 0.373 | 0.353
100 µM, coculture fibroblast: C12385 | 0.842 | 0.76571 | 0.718 | 0.65 | 0.603 | 0.575 | 0.548 | 0.531 | 0.522
100 µM, coculture fibroblast: H6013 | 0.9085 | 0.848 | 0.82 | 0.798 | 0.763 | 0.743 | 0.72 | 0.704 | 0.667
100 µM, coculture fibroblast: H6019 | 0.806 | 0.733 | 0.702 | 0.617 | 0.575 | 0.541 | 0.508 | 0.476 | 0.447
100 µM, coculture fibroblast: H6076 | 0.914 | 0.8578 | 0.831 | 0.819 | 0.797 | 0.794 | 0.774 | 0.766 | 0.764
100 µM, coculture fibroblast: H6231 | 0.894 | 0.835 | 0.802 | 0.769 | 0.719 | 0.703 | 0.668 | 0.644 | 0.633
100 µM, coculture fibroblast: HADF | 0.929 | 0.9 | 0.876 | 0.838 | 0.817 | 0.795 | 0.753 | 0.743 | 0.7
100 µM, coculture fibroblast: HCFa | 0.881 | 0.866 | 0.848 | 0.817 | 0.7586 | 0.749 | 0.717 | 0.709 | 0.681
100 µM, coculture fibroblast: HCPF | 0.9306 | 0.862 | 0.81 | 0.7704 | 0.7153 | 0.6903 | 0.6716 | 0.6232 | 0.6
100 µM, coculture fibroblast: HHSteC | 0.903 | 0.8301 | 0.7814 | 0.738 | 0.684 | 0.653 | 0.614 | 0.592 | 0.548
100 µM, coculture fibroblast: HMF | 0.92 | 0.854 | 0.797 | 0.773 | 0.723 | 0.7 | 0.669 | 0.64 | 0.615
100 µM, coculture fibroblast: HPFa | 0.9288 | 0.833 | 0.777 | 0.738 | 0.704 | 0.664 | 0.616 | 0.585 | 0.538
100 µM, coculture fibroblast: HUF | 0.8599 | 0.774 | 0.7452 | 0.66281 | 0.608 | 0.573 | 0.534 | 0.507 | 0.492
100 µM, coculture fibroblast: Hs27A | 0.906 | 0.866 | 0.837 | 0.822 | 0.777 | 0.774 | 0.749 | 0.754 | 0.712
100 µM, coculture fibroblast: Hs343T | 0.94 | 0.849 | 0.824 | 0.808 | 0.745 | 0.722 | 0.692 | 0.665 | 0.644
100 µM, coculture fibroblast: WS1 | 0.8193 | 0.75 | 0.69 | 0.611 | 0.559 | 0.539 | 0.513 | 0.493 | 0.478
